These are yes or no findings as the source states them, for the method shown. For part of these data: Binding seen in cells or lysates may run through a third protein. Some entries that bind do so weakly or less than the wild type. Tags and fused reporters may be left off the sequences shown.
B1: Myc-tagged WSB1 (WT) (enzyme, not shown: small tags and cut ends)
chain: MASFPPRVNEKEIVRLRTIGELLAPAAPFDKKCGRENWTVAFAPDGSYFAWSQGHRTVKLVPWSQCLQNFLLHGTKNVTNSSSLRLPRQNSDGGQKNKPREHIIDCGDIVWSLAFGSSVPEKQSRCVNIEWHRFRFGQDQLLLATGLNNGRIKIWDVYTGKLLLNLVDHTEVVRDLTFAPDGSLILVSASRDKTLRVWDLKDDGNMMKVLRGHQNWVYSCAFSPDSSMLCSVGASKAVFLWNMDKYTMIRKLEGHHHDVVACDFSPDGALLATASYDTRVYIWDPHNGDILMEFGHLFPPPTPIFAGGANDRWVRSVSFSHDGLHVASLADDKMVRFWRIDEDYPVQVAPLSNGLCCAFSTDGSVLAAGTHDGSVYFWATPRQVPSLQHLCRMSIRRVMPTQEVQELPIPSKLLEFLSYRI
B2: WSB1 (WT) GST fusion protein (enzyme, not shown: a dimerising Fc or GST)
chain: B1 chain

By UniProt entry, the sequences of proteins in these tests, tags left out. Where a name states a change or a piece, a line headed by the entry shows the natural chain unless it says otherwise.
UniProt P40337: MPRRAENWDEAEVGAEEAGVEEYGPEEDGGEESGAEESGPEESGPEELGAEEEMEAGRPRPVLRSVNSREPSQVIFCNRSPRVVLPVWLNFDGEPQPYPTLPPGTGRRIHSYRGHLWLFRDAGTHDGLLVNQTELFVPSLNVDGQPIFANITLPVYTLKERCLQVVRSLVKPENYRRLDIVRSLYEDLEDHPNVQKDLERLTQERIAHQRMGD

What was measured:
[1] = molecular target: HA-tagged VHL (Homo sapiens (Human)) (UniProt P40337); assay: co-immunoprecipitation of exogenous proteins from HEK 293T cell extracts (FIG. 9A)
[2] = molecular target: pVHL (von Hippel-Lindau protein) (human) (UniProt P40337); assay: co-immunoprecipitation of Myc-tagged WSB1 (WT and deletion mutants) with pVHL (FIGS. 10A, 10B)
[3] = molecular target: pVHL (von Hippel-Lindau protein) (human) (UniProt P40337); assay: in vitro binding assay, GST-WSB1 on GSH Sepharose, immunoblot (FIG. 10D)

Binder | binding [1] | binding [2] | binding [3]
B1 | binds | binds | –
B2 | – | – | binds

Reference: US20160326532A1
